{"source": "PubChem BioAssay AID1259259 (Sanger Institute, 2017)", "test": "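Kinase silencing that lowers colorectal cancer cell viability alone or with drugs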 (primary screen)", "cell system": "SW1463 human colorectal cancer cells", "reagent": "siRNA pool against human genes", "treatment": "DMSO vehicle, or one anchor drug: BYL719 at 1 µM, cetuximab at 5 µg/ml, or trametinib at 10 nM", "detection": "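Viability as fraction of control pool 2 (non-targeting), replicate mean; knock-down robust z-score without any drug; synergy score averaged for each anchor drug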", "reading the numbers": "robust z-score, knock-down alone: higher = more viable cells after knock-down; viability, knock-down alone: higher = more viable cells", "units": "viability, knock-down alone in fraction of control", "active means": "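a robust z-score under -3 for knock-down with no drug marks the gene as essential, meaning viability loss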", "calls": "active = essential: viability loss from knock-down alone; inactive = no change from knock-down alone", "note": "The deposit covers 794 reagents; this is a random part of them. In the full data, 9 (1.1%) got an active call. 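Calls rest on knock-down alone, not drug synergy; viability values seem capped at 1.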 Not all columns of the deposit are shown. No sequences are given here. Not stated in the record: the amount of reagent, the time to read-out."}
{"target gene":"ADK","robust z-score, knock-down alone":-1.88,"viability, knock-down alone":0.807,"activity call":"inactive"}
{"target gene":"GCK","robust z-score, knock-down alone":-0.35,"viability, knock-down alone":0.905,"activity call":"inactive"}
{"target gene":"MTOR","robust z-score, knock-down alone":-0.125,"viability, knock-down alone":0.92,"activity call":"inactive"}
{"target gene":"SPHK1","robust z-score, knock-down alone":1.13,"viability, knock-down alone":1,"activity call":"inactive"}
{"target gene":"KSR1","robust z-score, knock-down alone":-0.566,"viability, knock-down alone":0.891,"activity call":"inactive"}
{"target gene":"CDKN1C","robust z-score, knock-down alone":0.0435,"viability, knock-down alone":0.93,"activity call":"inactive"}
{"target gene":"DGUOK","robust z-score, knock-down alone":0.618,"viability, knock-down alone":0.967,"activity call":"inactive"}
{"target gene":"LMTK2","robust z-score, knock-down alone":0.452,"viability, knock-down alone":0.957,"activity call":"inactive"}
{"target gene":"GRK2","robust z-score, knock-down alone":0.918,"viability, knock-down alone":0.987,"activity call":"inactive"}
{"target gene":"ZAP70","robust z-score, knock-down alone":-0.891,"viability, knock-down alone":0.87,"activity call":"inactive"}
{"target gene":"LIMK1","robust z-score, knock-down alone":-0.585,"viability, knock-down alone":0.89,"activity call":"inactive"}
{"target gene":"TEC","robust z-score, knock-down alone":1.13,"viability, knock-down alone":1,"activity call":"inactive"}
{"target gene":"EIF2AK3","robust z-score, knock-down alone":0.392,"viability, knock-down alone":0.953,"activity call":"inactive"}
{"target gene":"DDR1","robust z-score, knock-down alone":1.13,"viability, knock-down alone":1,"activity call":"inactive"}
{"target gene":"PRKCB","robust z-score, knock-down alone":-0.256,"viability, knock-down alone":0.911,"activity call":"inactive"}
{"target gene":"FLT4","robust z-score, knock-down alone":-0.393,"viability, knock-down alone":0.902,"activity call":"inactive"}
{"target gene":"SMAD2","robust z-score, knock-down alone":0.29,"viability, knock-down alone":0.946,"activity call":"inactive"}
{"target gene":"IPPK","robust z-score, knock-down alone":0.457,"viability, knock-down alone":0.957,"activity call":"inactive"}

Copied from the list.
PRKCB, robust z-score, knock-down alone: -0.256
DGUOK, robust z-score, knock-down alone = 0.618
Entry of KSR1 in “robust z-score, knock-down alone”: -0.566

Further reagents:
{"target gene":"IKBKE","robust z-score, knock-down alone":1.13,"viability, knock-down alone":1,"activity call":"inactive"}
{"target gene":"ADCK1","robust z-score, knock-down alone":-0.382,"viability, knock-down alone":0.903,"activity call":"inactive"}
{"target gene":"FER","robust z-score, knock-down alone":-0.0617,"viability, knock-down alone":0.924,"activity call":"inactive"}
{"target gene":"FGR","robust z-score, knock-down alone":0.701,"viability, knock-down alone":0.973,"activity call":"inactive"}
{"target gene":"CAMK2A","robust z-score, knock-down alone":-0.09,"viability, knock-down alone":0.922,"activity call":"inactive"}
{"target gene":"CDK13","robust z-score, knock-down alone":-0.477,"viability, knock-down alone":0.897,"activity call":"inactive"}
{"target gene":"CSNK1D","robust z-score, knock-down alone":0.88,"viability, knock-down alone":0.984,"activity call":"inactive"}
{"target gene":"CSNK1E","robust z-score, knock-down alone":-0.464,"viability, knock-down alone":0.898,"activity call":"inactive"}
{"target gene":"NEK10","robust z-score, knock-down alone":0.194,"viability, knock-down alone":0.94,"activity call":"inactive"}
{"target gene":"PRKY","robust z-score, knock-down alone":1.13,"viability, knock-down alone":1,"activity call":"inactive"}
